{"source": "paper PMC5669925", "about": "“Tumor-expressed immune checkpoint B7x promotes cancer progression and antigen-specific CD8 T cell exhaustion and suppressive innate immune cells” (Oncotarget, 2017)", "molecules": {"B1": {"name": "Human Sema3a-hIgG1 (R&D) (Fc fusion, UniProt Q14563 21-771, looked up)", "chain": "NYQNGKNNVPRLKLSYKEMLESNNVITFNGLANSSSYHTFLLDEERSRLYVGAKDHIFSFDLVNIKDFQKIVWPVSYTRRDECKWAGKDILKECANFIKVLKAYNQTHLYACGTGAFHPICTYIEIGHHPEDNIFKLENSHFENGRGKSPYDPKLLTASLLIDGELYSGTAADFMGRDFAIFRTLGHHHPIRTEQHDSRWLNDPKFISAHLISESDNPEDDKVYFFFRENAIDGEHSGKATHARIGQICKNDFGGHRSLVNKWTTFLKARLICSVPGPNGIDTHFDELQDVFLMNFKDPKNPVVYGVFTTSSNIFKGSAVCMYSMSDVRRVFLGPYAHRDGPNYQWVPYQGRVPYPRPGTCPSKTFGGFDSTKDLPDDVITFARSHPAMYNPVFPMNNRPIVIKTDVNYQFTQIVVDRVDAEDGQYDVMFIGTDVGTVLKVVSIPKETWYDLEEVLLEEMTVFREPTAISAMELSTKQQQLYIGSTAGVAQLPLHRCDIYGKACAECCLARDPYCAWDGSACSRYFPTAKRRTRRQDIRNGDPLTHCSDLHHDNHHGHSPEERIIYGVENSSTFLECSPKSQRALVYWQFQRRNEERKEEIRVDDHIIRTDQGLLLRSLQQKDSGNYLCHAVEHGFIQTLLKVTLEVIDTEHLEELLHKDDDGDGSKTKEMSNSMTPSQKVWYRDFMQLINHPNLNTMDEFCEQVWKRDRKQRRQRPGHTPGNSNKWKHLQENKKGRNRRTHEFERAPRSV", "notes": "Semaphorin 3a (Sema3a), human; Commercial Fc fusion; no catalogue number; also called Sema3a-Ig; Semaphorin3a-hIgG1; source: bought: R&D systems"}, "B2": {"name": "Recombinant human B7x (R&D) (ligand, UniProt Q7Z7D3 25-259)", "chain": "LIIGFGISGRHSITVTTVASAGNIGEDGILSCTFEPDIKLSDIVIQWLKEGVLGLVHEFKEGKDELSEQDEMFRGRTAVFADQVIVGNASLRLKNVQLTDAGTYKCYIITSKGKGNANLEYKTGAFSMPEVNVDYNASSETLRCEAPRWFPQPTVVWASQVDQGANFSEVSNTSFELNSENVTMKVVSVLYNVTINNTYSCMIENDIAKATGDIKVTESEIKRRSHLQLLNSKAS"}, "B3": {"name": "Recombinant human B7x (R&D), Q7Z7D3 25-259 (ligand)", "chain": "LIIGFGISGRHSITVTTVASAGNIGEDGILSCTFEPDIKLSDIVIQWLKEGVLGLVHEFKEGKDELSEQDEMFRGRTAVFADQVIVGNASLRLKNVQLTDAGTYKCYIITSKGKGNANLEYKTGAFSMPEVNVDYNASSETLRCEAPRWFPQPTVVWASQVDQGANFSEVSNTSFELNSENVTMKVVSVLYNVTINNTYSCMIENDIAKATGDIKVTESEIKRRSHLQLLNSKAS"}}, "key": {"[1]": {"target": "T1, Human B7x-hIgG1 (Sino Biological) (human) (UniProt Q7Z7D3)", "T1 sequence": "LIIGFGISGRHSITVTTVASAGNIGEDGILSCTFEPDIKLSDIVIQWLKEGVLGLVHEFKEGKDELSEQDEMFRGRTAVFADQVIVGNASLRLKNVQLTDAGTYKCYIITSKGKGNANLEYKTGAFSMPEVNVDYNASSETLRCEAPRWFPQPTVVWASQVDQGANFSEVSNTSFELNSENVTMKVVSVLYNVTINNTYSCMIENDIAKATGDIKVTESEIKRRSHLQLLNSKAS", "assay": "BLI; BLItz system (ForteBio); human IgG fusion protein (25 ug/mL, 2 min) captured on anti-human IgG Fc capture sensors; protein analytes in 1x Kinetic Buffer (ForteBio); both purified"}, "[2]": {"target": "Full length human Neuropilin-1 on 3T3 cells (human) (UniProt O14786)", "assay": "flow cytometry on cells; 3T3 cells expressing full length human Neuropilin-1 (1 x 10^5) incubated with Ig fusion proteins (1 or 10 ug/mL) for 45 minutes on ice in FACS buffer; detected with anti-human IgG Fc antibody; only the binder purified"}, "[3]": {"target": "T2, Human NRP1-hIgG1 (Sino Biological) (human) (UniProt O14786)", "T2 sequence": "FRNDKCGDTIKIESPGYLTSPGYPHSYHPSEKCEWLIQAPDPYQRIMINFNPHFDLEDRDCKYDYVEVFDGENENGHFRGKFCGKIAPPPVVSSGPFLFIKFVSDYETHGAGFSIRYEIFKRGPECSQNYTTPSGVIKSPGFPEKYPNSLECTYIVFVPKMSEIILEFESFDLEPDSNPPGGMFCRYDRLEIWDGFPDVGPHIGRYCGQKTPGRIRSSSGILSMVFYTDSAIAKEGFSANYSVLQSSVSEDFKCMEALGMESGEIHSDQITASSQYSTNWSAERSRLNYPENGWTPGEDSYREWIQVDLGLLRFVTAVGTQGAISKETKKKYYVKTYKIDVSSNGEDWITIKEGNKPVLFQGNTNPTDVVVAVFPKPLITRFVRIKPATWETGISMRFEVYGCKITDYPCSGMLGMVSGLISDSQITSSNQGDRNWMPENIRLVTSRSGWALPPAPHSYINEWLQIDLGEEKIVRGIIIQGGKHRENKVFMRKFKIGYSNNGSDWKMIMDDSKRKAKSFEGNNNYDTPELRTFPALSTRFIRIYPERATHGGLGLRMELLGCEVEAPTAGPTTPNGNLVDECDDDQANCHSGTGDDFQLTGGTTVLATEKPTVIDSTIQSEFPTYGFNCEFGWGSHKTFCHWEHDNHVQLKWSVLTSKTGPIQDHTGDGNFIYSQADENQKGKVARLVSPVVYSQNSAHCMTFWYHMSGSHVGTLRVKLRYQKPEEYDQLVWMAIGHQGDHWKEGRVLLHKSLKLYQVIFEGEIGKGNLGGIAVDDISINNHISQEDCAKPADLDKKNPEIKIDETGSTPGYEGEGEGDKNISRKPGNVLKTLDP", "assay": "BLI; BLItz system (ForteBio); human IgG fusion protein (25 ug/mL, 2 min) captured on anti-human IgG Fc capture sensors; protein analytes in 1x Kinetic Buffer (ForteBio); both purified"}, "[4]": {"target": "T3, Human Sema3a-hIgG1 (R&D) (human), Q14563", "T3 chain": "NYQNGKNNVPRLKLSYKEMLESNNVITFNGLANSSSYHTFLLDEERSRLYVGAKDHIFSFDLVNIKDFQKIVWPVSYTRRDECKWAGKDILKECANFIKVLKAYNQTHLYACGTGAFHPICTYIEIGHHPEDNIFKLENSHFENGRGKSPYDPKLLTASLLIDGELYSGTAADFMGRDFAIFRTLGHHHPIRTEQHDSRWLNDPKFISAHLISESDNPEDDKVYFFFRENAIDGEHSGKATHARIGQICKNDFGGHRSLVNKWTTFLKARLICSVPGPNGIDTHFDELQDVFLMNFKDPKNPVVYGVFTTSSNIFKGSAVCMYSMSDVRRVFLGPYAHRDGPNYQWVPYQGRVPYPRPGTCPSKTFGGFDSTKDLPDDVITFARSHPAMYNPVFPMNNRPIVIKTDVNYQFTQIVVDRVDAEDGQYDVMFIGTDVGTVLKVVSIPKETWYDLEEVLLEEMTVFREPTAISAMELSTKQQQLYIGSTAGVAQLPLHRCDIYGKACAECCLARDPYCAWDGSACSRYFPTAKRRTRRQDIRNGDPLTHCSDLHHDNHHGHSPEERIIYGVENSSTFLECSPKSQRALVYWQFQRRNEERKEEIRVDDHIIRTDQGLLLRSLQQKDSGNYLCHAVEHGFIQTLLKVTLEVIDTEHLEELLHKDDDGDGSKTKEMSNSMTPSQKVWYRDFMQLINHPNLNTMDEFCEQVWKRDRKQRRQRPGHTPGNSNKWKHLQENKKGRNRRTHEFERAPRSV", "assay": "BLI; BLItz system (ForteBio); human IgG fusion protein (25 ug/mL, 2 min) captured on anti-human IgG Fc capture sensors; protein analytes in 1x Kinetic Buffer (ForteBio); both purified", "details": "remark: other sources report otherwise"}}, "note": "No constants are given. Whether binding was seen depends on the method and setting. Some results given as binding are weak or reduced against the parent protein; the word gives no strength."}
{"molecule": "Recombinant human NRP1 (R&D) (from UniProt O14786 22-856) (receptor)", "values": [{"measurement": "binding", "setting": "[1]", "result": "no binding (tested: 0.5 mg/mL)"}]}
{"molecule": "B1", "values": [{"measurement": "binding", "setting": "[2]", "result": "binds"}]}
{"molecule": "B2", "values": [{"measurement": "binding", "setting": "[3]", "result": "no binding (tested: 0.5 mg/mL)"}]}
{"molecule": "B3", "values": [{"measurement": "binding", "setting": "[4]", "result": "no binding (tested: 0.5 mg/mL)"}]}
